Data: PubChem BioAssay AID2685 (National Center for Advancing Translational Sciences (NCATS), 2010)
Some of the results follow. Further columns of the screen follow, without active or inactive calls. The list favours compounds with an active or inconclusive main result. The note in brackets gives the kind of curve behind each potency; many fits are weak.

Assay: qHTS Assay for Lipid Storage Modulators in Drosophila S3 Cells;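 on cell number change: cells counted by Cell Tracker Red CMTPX staining in the red channel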
Settings: BODIPY lipid droplet fluorescence, 18-24 h; for cell number change: measured here: cell count max response, cells fed with added oleic acid
Summary of the method: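 Drosophila S3 cells got compounds at several concentrations plus oleic acid (400 uM solution). Laser-scanning cytometry with 488 nm excitation read lipid droplets at 500-530 nm and cells at 575-640 nm. Percent activity was relative to 20 uM Triacsin C.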

[1] = measured here: cell number channel AC50, cells fed with added oleic acid
[2] = measured here: lipid fluorescence (Fed channel) AC50, cells fed with added oleic acid

CCOc1ccccc1C1C(C#N)=C(N)Oc2cc(N)ccc21 (stereo unspecified)
cell number change: 25.5% | AC50 [1]: 0.164 µM [rising, full curve] | AC50 [2]: 0.13 µM [rising, full curve, poor fit]

COC(=O)c1sc2nc(C)nc(SCC(=O)N3CCC(C(=O)O)CC3)c2c1C
cell number change: 92.6% | AC50 [1]: 29.1 µM [rising, single point] | AC50 [2]: 29.1 µM [rising, single point]

O=C(CSc1ncn[nH]1)Nc1ccc(S(=O)(=O)N2CCCC2)cc1
cell number change: 40.4% | AC50 [1]: 18.4 µM [rising, single point]

CC(NC(=O)C(NS(=O)(=O)c1cccc2nsnc12)C(C)C)c1ccccc1 (stereo unspecified)
cell number change: -3.89% | AC50 [2]: 0.517 µM [rising, single point]

CCN(C(=O)CN1C(=O)COc2ccc(S(=O)(=O)N3CCCCCC3)cc21)c1cccc(C)c1
cell number change: 19.1% | AC50 [2]: 16.4 µM [falling, partial curve]

COc1ccccc1C(=O)NCC(=O)OCC(=O)N(CC(C)C)c1c(N)n(Cc2ccccc2)c(=O)[nH]c1=O
cell number change: -6.83% | AC50 [2]: 6.51 µM [falling, partial curve, poor fit]

COC(=O)COc1ccc(S(=O)(=O)N2CCOCC2)cc1
cell number change: 0.527% | AC50 [2]: 6.51 µM [falling, single point]

CCC(c1nnnn1Cc1ccc2c(c1)OCO2)N1CCN(c2ccccc2)CC1 (stereo unspecified)
cell number change: -33% | AC50 [1]: 6.51 µM [falling, partial curve, poor fit]

Cc1ncsc1CCC(=O)N1CCCC(Nc2ccc(F)c(F)c2)C1 (stereo unspecified)
cell number change: 14.2% | AC50 [2]: 2.91 µM [rising, full curve]

COc1cccc(OC)c1C(=O)N1CCN(Cc2cccnc2)CC1
cell number change: 20.2% | AC50 [2]: 1.84 µM [rising, partial curve, poor fit]

O=C(NCc1cccs1)c1cnc2sccn2c1=O
cell number change: 16.6% | AC50 [1]: 0.517 µM [rising, partial curve] | AC50 [2]: 16.4 µM [rising, single point]

COc1ccc(C2=NCCn3cccc32)c(OC)c1
cell number change: 0.344% | AC50 [2]: 32.6 µM [falling, single point]

O=Nc1c2nc3ccccc3n(O)c-2c2ccccc12
cell number change: -33.5% | AC50 [1]: 14.6 µM [falling, partial curve, poor fit] | AC50 [2]: 18.4 µM [falling, partial curve, poor fit]

CCOCCCNc1nc(-c2ccccc2)nc2ccccc12
AC50 [2]: 3.66 µM [falling, full curve]

Clc1ccc(-n2cnnn2)cc1
cell number change: -75.8% | AC50 [1]: 23.1 µM [falling, partial curve, poor fit] | AC50 [2]: 23.1 µM [falling, partial curve]

O=C(CCC1CCCN(Cc2cccc(Cl)c2)C1)NCc1ccccc1F (stereo unspecified)
cell number change: 11.5% | AC50 [2]: 29.1 µM [rising, single point]

COc1ccc(CNC(=O)OCc2nccnc2C(=O)Nc2ccc(Br)cn2)cc1
cell number change: -10.5% | AC50 [2]: 1.16 µM [rising, full curve]

Cn1nccc1C(=O)NC(=S)Nc1cc(Cl)cc(Cl)c1
cell number change: 21.8%

COc1ccc2c(c1)c(=O)cc(C)n2CC(=O)NCc1ccco1
cell number change: 1.79%

COc1ccc(C(CNC(=O)c2ccc(NS(=O)(=O)c3ccccc3)cc2)N2CCOCC2)cc1 (stereo unspecified)
cell number change: -36.1% | AC50 [1]: 23.1 µM [falling, single point]

Cc1ccc(N(C(C)C(=O)Nc2ccc(S(=O)(=O)N3CCOCC3)cc2)S(C)(=O)=O)cc1C (stereo unspecified)
cell number change: -12.5% | AC50 [1]: 0.13 µM [falling, partial curve, poor fit] | AC50 [2]: 13 µM [falling, single point]

CS(=O)(=O)N1CCN(c2ccc(NC(=O)c3ccc(-c4ccc(Cl)cc4)o3)cc2)CC1
cell number change: -32.9% | AC50 [1]: 20.6 µM [falling, single point] | AC50 [2]: 14.6 µM [falling, single point]

O=C(O)c1[nH]c2ccccc2c1-c1ccccc1
cell number change: -31.3% | AC50 [1]: 5.8 µM [falling, full curve, poor fit]

O=C(CN1CCN(c2ccc(F)cc2)CC1)N1CCC(Cc2ccccc2)CC1
cell number change: -0.429% | AC50 [2]: 6.51 µM [falling, single point]

Cc1ccn(S(=O)(=O)c2ccc(C(C)(C)C)cc2)n1
cell number change: -13.4% | AC50 [2]: 25.9 µM [rising, single point]

CC(=O)Nc1ccc(NC(=O)CN(C)S(=O)(=O)c2ccc3ccccc3c2)cc1
cell number change: 3.78% | AC50 [2]: 16.4 µM [rising, single point]

COc1ccc(NC(=S)NC(=O)Cc2ccccc2)cc1
cell number change: 6.93% | AC50 [1]: 1.84 µM [rising, partial curve] | AC50 [2]: 6.51 µM [rising, single point]

CC(C)(CNC(=O)c1ccc(-c2ccccc2Cl)o1)N1CCOCC1
AC50 [2]: 2.06 µM [rising, partial curve]

Cc1cc(Cl)cc(Cl)c1OCC(=O)NCc1ccco1
cell number change: -13% | AC50 [2]: 29.1 µM [rising, partial curve, poor fit]

CCCNS(=O)(=O)c1ccc(CCC(=O)NCc2ccc3c(c2)OCO3)cc1
cell number change: 13.4%

Cn1c(SCC(=O)NCc2ccco2)nnc1-c1cccs1
cell number change: 5.33%

COc1ccc(Nc2nnc(SCc3cn4c(C)cccc4n3)s2)cc1
cell number change: 12.9% | AC50 [2]: 0.259 µM [rising, full curve]

O=C(O)CSCC(=O)N1CCN(S(=O)(=O)c2ccccc2)CC1
cell number change: 0.622% | AC50 [1]: 0.82 µM [falling, partial curve] | AC50 [2]: 6.51 µM [falling, partial curve, poor fit]

COc1ccc(S(=O)(=O)N(CCC(=O)O)Cc2ccccc2)cc1
cell number change: -16.2% | AC50 [1]: 0.259 µM [falling, full curve, poor fit] | AC50 [2]: 1.64 µM [falling, partial curve]

CC(C)OCCOc1ccc2oc(-c3ccco3)cc(=O)c2c1
cell number change: -4.91% | AC50 [2]: 29.1 µM [falling, single point]

O=C(CN1CCN(Cc2ccccc2)C1=O)NCCCN1CCOCC1
cell number change: 2.64% | AC50 [2]: 6.51 µM [falling, single point]
